The results in this text go back to paper doi:10.1101/2021.03.02.433611.

The chains behind the UniProt entries cited, without tags or fusion partners.
UniProt Q13283: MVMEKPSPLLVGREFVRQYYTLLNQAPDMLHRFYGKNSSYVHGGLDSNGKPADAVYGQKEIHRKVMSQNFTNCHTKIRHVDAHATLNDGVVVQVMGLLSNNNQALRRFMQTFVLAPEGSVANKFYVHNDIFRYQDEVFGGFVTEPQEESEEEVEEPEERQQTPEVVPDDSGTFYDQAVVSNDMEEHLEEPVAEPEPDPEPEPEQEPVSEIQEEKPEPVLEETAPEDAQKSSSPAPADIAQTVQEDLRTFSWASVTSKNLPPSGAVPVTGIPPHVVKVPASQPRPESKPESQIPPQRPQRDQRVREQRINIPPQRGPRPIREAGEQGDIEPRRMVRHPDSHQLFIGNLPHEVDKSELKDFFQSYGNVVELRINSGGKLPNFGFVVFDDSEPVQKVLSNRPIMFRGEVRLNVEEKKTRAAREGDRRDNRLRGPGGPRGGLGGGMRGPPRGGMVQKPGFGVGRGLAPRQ

No constants are given. Whether binding was seen depends on the method and setting. Binding seen in cells or lysates may run through a third protein. A yes stands for co-enrichment or nearness to the bait. Other partners may have been found.

This assay deals with G3BP1-GFP (UniProt Q13283). As to the kind of experiment: affinity purification with mass spectrometry.

B1: NUP160 (protein, UniProt Q12769 1-1436)
chain: MLHLSAAPPAPPPEVTATARPCLCSVGRRGDGGKMAAAGALERSFVELSGAERERPRHFREFTVCSIGTANAVAGAVKYSESAGGFYYVESGKLFSVTRNRFIHWKTSGDTLELMEESLDINLLNNAIRLKFQNCSVLPGGVYVSETQNRVIILMLTNQTVHRLLLPHPSRMYRSELVVDSQMQSIFTDIGKVDFTDPCNYQLIPAVPGISPNSTASTAWLSSDGEALFALPCASGGIFVLKLPPYDIPGMVSVVELKQSSVMQRLLTGWMPTAIRGDQSPSDRPLSLAVHCVEHDAFIFALCQDHKLRMWSYKEQMCLMVADMLEYVPVKKDLRLTAGTGHKLRLAYSPTMGLYLGIYMHAPKRGQFCIFQLVSTESNRYSLDHISSLFTSQETLIDFALTSTDIWALWHDAENQTVVKYINFEHNVAGQWNPVFMQPLPEEEIVIRDDQDPREMYLQSLFTPGQFTNEALCKALQIFCRGTERNLDLSWSELKKEVTLAVENELQGSVTEYEFSQEEFRNLQQEFWCKFYACCLQYQEALSHPLALHLNPHTNMVCLLKKGYLSFLIPSSLVDHLYLLPYENLLTEDETTISDDVDIARDVICLIKCLRLIEESVTVDMSVIMEMSCYNLQSPEKAAEQILEDMITIDVENVMEDICSKLQEIRNPIHAIGLLIREMDYETEVEMEKGFNPAQPLNIRMNLTQLYGSNTAGYIVCRGVHKIASTRFLICRDLLILQQLLMRLGDAVIWGTGQLFQAQQDLLHRTAPLLLSYYLIKWGSECLATDVPLDTLESNLQHLSVLELTDSGALMANRFVSSPQTIVELFFQEVARKHIISHLFSQPKAPLSQTGLNWPEMITAITSYLLQLLWPSNPGCLFLECLMGNCQYVQLQDYIQLLHPWCQVNVGSCRFMLGRCYLVTGEGQKALECFCQAASEVGKEEFLDRLIRSEDGEIVSTPRLQYYDKVLRLLDVIGLPELVIQLATSAITEAGDDWKSQATLRTCIFKHHLDLGHNSQAYEALTQIPDSSRQLDCLRQLVVVLCERSQLQDLVEFPYVNLHNEVVGIIESRARAVDLMTHNYYELLYAFHIYRHNYRKAGTVMFEYGMRLGREVRTLRGLEKQGNCYLAALNCLRLIRPEYAWIVQPVSGAVYDRPGASPKRNHDGECTAAPTNRQIEILELEDLEKECSLARIRLTLAQHDPSAVAVAGSSSAEEMVTLLVQAGLFDTAISLCQTFKLPLTPVFEGLAFKCIKLQFGGEAAQAEAWAWLAANQLSSVITTKESSATDEAWRLLSTYLERYKVQNNLYHHCVINKLLSHGVPLPNWLINSYKKVDAAELLRLYLNYDLLEEAVDLVSEYVDAVLGKGHQYFGIEFPLSATAPMVWLPYSSIDQLLQALGENSANSHNIALSQKILDKLEDYQQKVDKATRDLLYRRTL
For the molecule B1, the binding result was “binds”.
